Assay results: patent publication US20260265393A1
These are yes or no findings as the source states them, for the method shown. Some binding calls cover weakened binding; strength is not graded here.

By UniProt entry, the sequences of proteins in these tests, tags left out. Residues count along the entry.
UniProt P26842, residues 21-192: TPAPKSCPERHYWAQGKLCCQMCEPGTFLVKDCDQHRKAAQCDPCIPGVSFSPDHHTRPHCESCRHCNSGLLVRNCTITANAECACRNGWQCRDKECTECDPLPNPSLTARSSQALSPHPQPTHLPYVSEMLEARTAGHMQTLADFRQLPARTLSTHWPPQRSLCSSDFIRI

How the values were obtained:
[1] = target: CD27-mFc (Kangdai) (human) (UniProt P26842); assay: ELISA on coated CD27-mFc, method of Example 3.1 (Example 9.1)
[2] = target: CD27-mFc (Kangdai) (human) (UniProt P26842); assay: ELISA on coated CD27-mFc
[3] = target: CD27-mFc (Kangdai) (human) (UniProt P26842); assay: competition ELISA: coated CD70, fixed CD27-mFc plus antibody dilution, method of Example 3.5 (Example 10); blocked ligand CD70; x axis printed -0.5 to 1.0 under the label Ab Con.ug/mL
[4] = target: antigen CD27 (soluble, as used in the BLI and SPR experiments) (UniProt P26842); assay: BLI epitope binning
[5] = target: antigen CD27 (soluble, as used in the BLI and SPR experiments) (UniProt P26842); assay: BLI, antibody captured on the probe, then antigen CD27 (Example 4.1)
[6] = target: CD27-mFc (Kangdai) (human) (UniProt P26842); assay: competition ELISA: coated CD70 (1 ug/mL), CD27-mFc fixed at 4.3 ug/mL plus antibody dilution, HRP anti-mouse Fc detection; blocked ligand CD70 (Example 3.5)
[7] = target: CD27-mFc (Kangdai) (human) (UniProt P26842); assay: ELISA: 13B3-hFc coated, CD27-mFc 0.8 µg/mL with 1F5 dilutions
[8] = target: CD27-mFc (Kangdai) (human) (UniProt P26842); assay: ELISA on coated CD27-mFc (1 ug/mL), anti-human IgG Fc detection (Example 3.1)
[9] = target: CD27-mFc (Kangdai) (human) (UniProt P26842); assay: ELISA, hybridoma supernatant on coated CD27-mFc
[10] = target: CD27-mFc (Kangdai) (human) (UniProt P26842); assay: hybridoma screening ELISA
[11] = target: antigen CD27 (soluble, as used in the BLI and SPR experiments) (UniProt P26842); assay: BLI epitope binning, CD27 held by 13B3 on the probe

Measured: binding

B1: 13B3-huH4L1 (P33425) humanized CD27 monoclonal antibody (antibody, V domains shown)
VH: QVQLVQSGAEVKKPGASVKVSCKTSGYAFSQSWMNWVRQAPGQGLEWMGRIYPGDGDTNYAQKFQGRVTMTADTSISTAYMELSRLRSDDTAVYYCASMIRTTYVMDHWGQGTTVTVSS
VL: EIVLTQSPDFLSVTPKEKVTLTCRASQSVSNSLHWYQQKPDQSPKLLIMYTSQSISGIPSRFSGSGSGTDFTLTINSVEAEDAATYYCQQSNSWPLTFGGGTKLELK
binds: [1] | [2]

B2: 13B3-huH2L2 (P33426) humanized CD27 monoclonal antibody (antibody, V domains shown)
VH: QVQLVQSGAEVKKPGASVKVSCKTSGYAFSQSWMNWVRQAPGQGLEWIGRIYPGDGDTNYNGIFKGRVTLTADKSSSTAYMELSRLRSDDTAVYYCASMIRTTYVMDHWGQGTTVTVSS
VL: IVLTQSPDFQSVTPKEKVTITCRASQSVSNSLHWYQQKPDQSPKLLIMYTSQSISGVPSRFSGSGSGTDFTLTINSLEAEDAATYYCQQSNSWPLTFGGGTKLELK
binds: [3] | [1] | [2]

B3: 13B3-huH3L4 (P33434) humanized CD27 monoclonal antibody (antibody, V domains shown)
VH: QVQLVQSGAEVKKPGASVKVSCKTSGYAFSQSWMNWVRQAPGQGLEWIGRIYPGDGDTNYNGIFQGRVTLTADTSISTAYMELSRLRSDDTAVYYCASMIRTTYVMDHWGQGTTVTVSS
VL: EIVLTQSPATLSLSPGERATLSCRASQSVSNSLHWYQQKPGQAPRLLIMYTSQSISGIPARFSGSGSGTDFTLTISSLEPEDFAVYYCQQSNSWPLTFGGGTKLELK
binds: [3] | [1] | [2]

B4: 13B3-huH4L3 (P33432) humanized CD27 monoclonal antibody (antibody, V domains shown)
VH: QVQLVQSGAEVKKPGASVKVSCKTSGYAFSQSWMNWVRQAPGQGLEWMGRIYPGDGDTNYAQKFQGRVTMTADTSISTAYMELSRLRSDDTAVYYCASMIRTTYVMDHWGQGTTVTVSS
VL: DIVLTQSPATLSVSPGERVTLSCRASQSVSNSLHWYQQKPGQAPRLLIMYTSQSISGIPARFSGSGSGTDFTLTISSVEPEDFAVYYCQQSNSWPLTFGGGTKLELK
binds: [3]

B5: 13B3-hFc human-mouse chimeric CD27 monoclonal antibody (antibody, V domains shown)
VH: QVQLQQSGPEQVKPGASVKISCKTSGYAFSQSWMNWVKQRPGQGLEWIGRIYPGDGDTNYNGIFKGKATLTADKSSSTAYMQLSSLTSLDSAVYFCASMIRTTYVMDHWGQGTSVTVTS
VL: DIVLTQSPATLSVTPGDSVSLSCRASQSVSNSLHWYQQKSHESPRLLIMYTSQSISGIPSRFSGSGSGTDFTLSINSVETEDFGMYFCQQSNSWPLTFGAGTKLELK
not listed: [9] | [10] | [11]
binds: all other assays above

B6: 16B1 anti-human CD27 mouse monoclonal antibody (hybridoma clone) (antibody, V domains shown)
VH: QVQLQQSGPEQVKPGASVKISCKTSGYAFSQSWMNWVKQRPGQGLEWIGRIYPGDGDTNYNGIFKGKATLTADKSSSTAYMQLSSLTSLDSAVYFCASMIRTTYVMDHWGQGTSVTVTS
VL: DIVLTQSPATLSVTPGDSVSLSCRASQSVSNSLHWYQQKSHESPRLLIMYTSQSISGIPSRFSGSGSGTDFTLSINSVETEDFGMYFCQQSNSWPLTFGAGTKLELK
binds: [9] | [10]

B7: 13B3 anti-human CD27 mouse monoclonal antibody (hybridoma clone) (antibody, V domains shown)
VH: QVQLQQSGPEQVKPGASVKISCKTSGYAFSQSWMNWVKQRPGQGLEWIGRIYPGDGDTNYNGIFKGKATLTADKSSSTAYMQLSSLTSLDSAVYFCASMIRTTYVMDHWGQGTSVTVTS
VL: DIVLTQSPATLSVTPGDSVSLSCRASQSVSNSLHWYQQKSHESPRLLIMYTSQSISGIPSRFSGSGSGTDFTLSINSVETEDFGMYFCQQSNSWPLTFGAGTKLELK
binds: [9] | [10]

B8: 17H8-hFc human-mouse chimeric CD27 monoclonal antibody (antibody, V domains shown)
VH: EVKLEESGGGLVQPGGSMKLSCVASGFTFSNYWMNWVRQSPEKGLEWVAEIRLKSNNYATYYAESVKGRFTISRDDSKSSVYLQMNSLRGEDTGIYYCTLYDSSYYYAMDYWGQGTSVTVSS
VL: DVVLTQTPLSLPVNIGDQASISCKSTQSLLHSDGFTYLDWYLQKPGQSPQLLIYLVSNRFLGVPDRFSGSGSRTDFTLKISRVEAEDLGVYYCFQSNYLPLTFGGGTKLEI
binds: [11] | [2] | [5] | [8]

B9: 17H8 anti-human CD27 mouse monoclonal antibody (hybridoma clone) (antibody, V domains shown)
VH: EVKLEESGGGLVQPGGSMKLSCVASGFTFSNYWMNWVRQSPEKGLEWVAEIRLKSNNYATYYAESVKGRFTISRDDSKSSVYLQMNSLRGEDTGIYYCTLYDSSYYYAMDYWGQGTSVTVSS
VL: DVVLTQTPLSLPVNIGDQASISCKSTQSLLHSDGFTYLDWYLQKPGQSPQLLIYLVSNRFLGVPDRFSGSGSRTDFTLKISRVEAEDLGVYYCFQSNYLPLTFGGGTKLEI
binds: [9] | [10]
